No constants are given. Whether binding was seen depends on the method and setting. In cells and extracts the contact can be indirect. Here binding means that the protein was enriched with, or labelled near, the bait; the list need not be complete. Sequences can lack the tags named with a protein.
Biological target: T1, biotin-tagged XPF (mouse (endogenous knock-in in MEFs)) (UniProt Q9QZD4)
T1 sequence (chain, biotin on the 15 aa tag (by the BirA ligase in vivo)): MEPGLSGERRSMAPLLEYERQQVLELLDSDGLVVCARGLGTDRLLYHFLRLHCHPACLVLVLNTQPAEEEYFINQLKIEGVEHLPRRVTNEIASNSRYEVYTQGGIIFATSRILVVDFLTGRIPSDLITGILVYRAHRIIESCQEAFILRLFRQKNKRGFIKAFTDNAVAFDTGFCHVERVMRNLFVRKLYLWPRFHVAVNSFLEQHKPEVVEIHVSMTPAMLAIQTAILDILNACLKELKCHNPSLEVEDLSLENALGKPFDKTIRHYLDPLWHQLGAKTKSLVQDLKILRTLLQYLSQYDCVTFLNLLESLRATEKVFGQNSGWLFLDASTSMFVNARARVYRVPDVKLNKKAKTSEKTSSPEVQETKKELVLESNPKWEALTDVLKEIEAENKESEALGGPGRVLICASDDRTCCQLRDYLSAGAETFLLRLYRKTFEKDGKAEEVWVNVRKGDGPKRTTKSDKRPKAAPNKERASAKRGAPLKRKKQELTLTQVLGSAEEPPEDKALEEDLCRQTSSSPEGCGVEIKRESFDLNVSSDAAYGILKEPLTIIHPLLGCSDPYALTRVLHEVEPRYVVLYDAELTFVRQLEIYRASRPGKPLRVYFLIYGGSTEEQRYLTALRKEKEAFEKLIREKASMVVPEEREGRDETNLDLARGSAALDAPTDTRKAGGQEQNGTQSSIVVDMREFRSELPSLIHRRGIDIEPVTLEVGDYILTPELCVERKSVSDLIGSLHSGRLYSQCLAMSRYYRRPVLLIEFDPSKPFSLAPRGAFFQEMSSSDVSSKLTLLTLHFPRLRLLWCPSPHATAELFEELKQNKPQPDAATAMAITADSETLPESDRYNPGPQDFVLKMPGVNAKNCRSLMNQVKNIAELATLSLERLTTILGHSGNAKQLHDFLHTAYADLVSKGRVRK
Assay: affinity purification with mass spectrometry

Chains of the proteins cited; added tags and fusions are not shown.
UniProt P10922: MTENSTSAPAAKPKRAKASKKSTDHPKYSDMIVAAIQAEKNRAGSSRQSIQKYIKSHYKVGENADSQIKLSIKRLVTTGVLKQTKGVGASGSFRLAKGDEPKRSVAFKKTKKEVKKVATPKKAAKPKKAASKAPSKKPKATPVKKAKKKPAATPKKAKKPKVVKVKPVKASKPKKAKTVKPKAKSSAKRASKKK
UniProt P43276: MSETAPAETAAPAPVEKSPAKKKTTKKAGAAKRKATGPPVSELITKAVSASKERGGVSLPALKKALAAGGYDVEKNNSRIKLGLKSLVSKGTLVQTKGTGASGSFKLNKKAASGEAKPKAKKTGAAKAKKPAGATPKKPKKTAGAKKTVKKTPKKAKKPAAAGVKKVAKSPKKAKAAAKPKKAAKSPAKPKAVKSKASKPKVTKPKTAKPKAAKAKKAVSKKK
UniProt P43274: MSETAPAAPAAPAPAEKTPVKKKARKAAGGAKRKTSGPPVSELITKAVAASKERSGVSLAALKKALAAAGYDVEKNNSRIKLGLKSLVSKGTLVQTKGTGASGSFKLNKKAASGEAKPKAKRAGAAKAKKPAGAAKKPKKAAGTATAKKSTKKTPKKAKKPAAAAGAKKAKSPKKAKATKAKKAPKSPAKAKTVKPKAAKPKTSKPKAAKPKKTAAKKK
UniProt Q9JJZ6: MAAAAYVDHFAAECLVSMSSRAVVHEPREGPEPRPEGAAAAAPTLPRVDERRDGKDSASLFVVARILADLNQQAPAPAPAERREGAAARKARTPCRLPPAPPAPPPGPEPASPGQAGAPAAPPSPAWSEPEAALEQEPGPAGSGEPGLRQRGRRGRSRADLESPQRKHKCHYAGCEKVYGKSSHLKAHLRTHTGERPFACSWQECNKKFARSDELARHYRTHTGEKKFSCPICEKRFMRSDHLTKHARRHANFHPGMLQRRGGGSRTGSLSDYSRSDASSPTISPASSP
UniProt P97868: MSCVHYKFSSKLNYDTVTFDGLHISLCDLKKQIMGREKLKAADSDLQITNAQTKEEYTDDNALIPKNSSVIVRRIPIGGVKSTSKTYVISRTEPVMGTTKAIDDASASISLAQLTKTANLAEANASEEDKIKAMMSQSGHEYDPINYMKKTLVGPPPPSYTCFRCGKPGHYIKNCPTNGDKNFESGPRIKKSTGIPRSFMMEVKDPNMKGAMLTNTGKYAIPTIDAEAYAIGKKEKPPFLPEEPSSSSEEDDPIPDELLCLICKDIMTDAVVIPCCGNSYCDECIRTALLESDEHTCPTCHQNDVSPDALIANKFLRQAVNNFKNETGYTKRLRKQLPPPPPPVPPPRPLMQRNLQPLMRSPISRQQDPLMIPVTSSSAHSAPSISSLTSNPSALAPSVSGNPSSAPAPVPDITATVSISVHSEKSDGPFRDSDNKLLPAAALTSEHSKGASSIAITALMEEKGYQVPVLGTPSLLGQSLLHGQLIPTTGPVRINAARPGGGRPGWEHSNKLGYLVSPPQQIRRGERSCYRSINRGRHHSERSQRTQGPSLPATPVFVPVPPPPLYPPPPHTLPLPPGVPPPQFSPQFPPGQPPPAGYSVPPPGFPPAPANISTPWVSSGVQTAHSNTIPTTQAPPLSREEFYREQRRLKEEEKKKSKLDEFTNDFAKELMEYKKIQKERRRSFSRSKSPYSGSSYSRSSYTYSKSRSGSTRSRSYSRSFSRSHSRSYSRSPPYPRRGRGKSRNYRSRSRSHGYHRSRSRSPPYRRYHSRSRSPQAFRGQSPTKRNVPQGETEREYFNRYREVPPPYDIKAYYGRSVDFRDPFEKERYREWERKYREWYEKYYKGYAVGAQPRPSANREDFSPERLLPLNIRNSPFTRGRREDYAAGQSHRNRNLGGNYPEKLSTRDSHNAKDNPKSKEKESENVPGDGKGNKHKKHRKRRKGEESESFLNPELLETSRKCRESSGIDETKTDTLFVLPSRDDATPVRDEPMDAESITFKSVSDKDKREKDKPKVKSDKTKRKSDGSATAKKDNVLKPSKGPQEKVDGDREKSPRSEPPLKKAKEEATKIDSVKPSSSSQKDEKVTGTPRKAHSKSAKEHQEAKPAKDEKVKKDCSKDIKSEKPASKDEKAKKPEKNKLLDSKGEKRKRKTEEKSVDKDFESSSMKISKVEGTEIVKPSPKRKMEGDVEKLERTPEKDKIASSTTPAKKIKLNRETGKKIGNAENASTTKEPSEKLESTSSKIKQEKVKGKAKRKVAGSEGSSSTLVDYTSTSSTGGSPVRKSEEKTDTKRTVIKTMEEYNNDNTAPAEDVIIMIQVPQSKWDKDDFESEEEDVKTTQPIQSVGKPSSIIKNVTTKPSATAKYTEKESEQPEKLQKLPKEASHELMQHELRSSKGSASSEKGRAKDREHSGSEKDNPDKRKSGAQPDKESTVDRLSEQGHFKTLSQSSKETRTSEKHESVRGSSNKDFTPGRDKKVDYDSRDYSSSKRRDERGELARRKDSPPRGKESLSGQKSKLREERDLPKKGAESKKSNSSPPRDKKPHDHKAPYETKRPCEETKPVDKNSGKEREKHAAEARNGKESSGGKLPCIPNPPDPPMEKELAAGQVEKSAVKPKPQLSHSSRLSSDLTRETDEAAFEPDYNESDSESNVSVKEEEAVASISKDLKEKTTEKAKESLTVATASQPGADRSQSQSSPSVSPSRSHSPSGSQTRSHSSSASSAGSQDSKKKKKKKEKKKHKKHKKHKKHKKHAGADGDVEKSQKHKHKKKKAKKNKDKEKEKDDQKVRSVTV
UniProt Q9WUK4: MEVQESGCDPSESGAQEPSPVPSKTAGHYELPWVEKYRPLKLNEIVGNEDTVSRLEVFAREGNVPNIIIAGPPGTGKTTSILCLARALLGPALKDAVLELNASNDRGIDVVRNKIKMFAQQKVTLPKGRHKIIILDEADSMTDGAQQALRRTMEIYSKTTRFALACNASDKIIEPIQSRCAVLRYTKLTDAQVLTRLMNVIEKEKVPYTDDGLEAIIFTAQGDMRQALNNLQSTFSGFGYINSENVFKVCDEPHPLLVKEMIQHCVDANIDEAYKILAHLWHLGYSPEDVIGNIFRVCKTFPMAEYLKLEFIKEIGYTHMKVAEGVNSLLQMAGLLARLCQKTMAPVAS
UniProt Q8R323: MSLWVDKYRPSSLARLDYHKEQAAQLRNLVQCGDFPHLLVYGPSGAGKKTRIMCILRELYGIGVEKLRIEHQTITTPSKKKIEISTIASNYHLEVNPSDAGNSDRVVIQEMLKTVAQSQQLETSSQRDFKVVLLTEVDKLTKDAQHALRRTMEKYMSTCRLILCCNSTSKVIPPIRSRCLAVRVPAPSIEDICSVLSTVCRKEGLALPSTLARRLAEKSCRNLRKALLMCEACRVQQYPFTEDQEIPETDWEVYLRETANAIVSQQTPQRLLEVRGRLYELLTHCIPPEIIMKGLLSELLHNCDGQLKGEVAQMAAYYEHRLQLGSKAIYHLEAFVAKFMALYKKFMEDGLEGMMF
UniProt Q99J62: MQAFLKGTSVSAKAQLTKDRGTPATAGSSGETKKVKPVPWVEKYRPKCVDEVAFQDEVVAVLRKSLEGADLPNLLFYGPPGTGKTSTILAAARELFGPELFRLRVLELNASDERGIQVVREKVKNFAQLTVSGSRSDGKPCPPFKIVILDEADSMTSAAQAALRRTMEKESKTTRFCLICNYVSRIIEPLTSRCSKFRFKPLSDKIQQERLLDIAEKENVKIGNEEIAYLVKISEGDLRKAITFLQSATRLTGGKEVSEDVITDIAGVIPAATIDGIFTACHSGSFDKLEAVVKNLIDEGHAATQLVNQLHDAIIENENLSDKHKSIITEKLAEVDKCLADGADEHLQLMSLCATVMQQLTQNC
UniProt Q9D0F6: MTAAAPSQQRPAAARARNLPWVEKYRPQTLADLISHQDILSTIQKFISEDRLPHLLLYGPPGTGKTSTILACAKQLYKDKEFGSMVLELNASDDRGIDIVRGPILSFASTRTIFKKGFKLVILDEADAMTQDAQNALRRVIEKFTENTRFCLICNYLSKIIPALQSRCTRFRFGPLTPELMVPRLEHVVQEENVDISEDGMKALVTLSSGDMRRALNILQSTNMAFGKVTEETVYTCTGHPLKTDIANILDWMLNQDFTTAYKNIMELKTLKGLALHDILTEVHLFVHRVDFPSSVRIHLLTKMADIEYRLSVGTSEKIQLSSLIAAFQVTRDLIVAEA
UniProt Q91ZW3: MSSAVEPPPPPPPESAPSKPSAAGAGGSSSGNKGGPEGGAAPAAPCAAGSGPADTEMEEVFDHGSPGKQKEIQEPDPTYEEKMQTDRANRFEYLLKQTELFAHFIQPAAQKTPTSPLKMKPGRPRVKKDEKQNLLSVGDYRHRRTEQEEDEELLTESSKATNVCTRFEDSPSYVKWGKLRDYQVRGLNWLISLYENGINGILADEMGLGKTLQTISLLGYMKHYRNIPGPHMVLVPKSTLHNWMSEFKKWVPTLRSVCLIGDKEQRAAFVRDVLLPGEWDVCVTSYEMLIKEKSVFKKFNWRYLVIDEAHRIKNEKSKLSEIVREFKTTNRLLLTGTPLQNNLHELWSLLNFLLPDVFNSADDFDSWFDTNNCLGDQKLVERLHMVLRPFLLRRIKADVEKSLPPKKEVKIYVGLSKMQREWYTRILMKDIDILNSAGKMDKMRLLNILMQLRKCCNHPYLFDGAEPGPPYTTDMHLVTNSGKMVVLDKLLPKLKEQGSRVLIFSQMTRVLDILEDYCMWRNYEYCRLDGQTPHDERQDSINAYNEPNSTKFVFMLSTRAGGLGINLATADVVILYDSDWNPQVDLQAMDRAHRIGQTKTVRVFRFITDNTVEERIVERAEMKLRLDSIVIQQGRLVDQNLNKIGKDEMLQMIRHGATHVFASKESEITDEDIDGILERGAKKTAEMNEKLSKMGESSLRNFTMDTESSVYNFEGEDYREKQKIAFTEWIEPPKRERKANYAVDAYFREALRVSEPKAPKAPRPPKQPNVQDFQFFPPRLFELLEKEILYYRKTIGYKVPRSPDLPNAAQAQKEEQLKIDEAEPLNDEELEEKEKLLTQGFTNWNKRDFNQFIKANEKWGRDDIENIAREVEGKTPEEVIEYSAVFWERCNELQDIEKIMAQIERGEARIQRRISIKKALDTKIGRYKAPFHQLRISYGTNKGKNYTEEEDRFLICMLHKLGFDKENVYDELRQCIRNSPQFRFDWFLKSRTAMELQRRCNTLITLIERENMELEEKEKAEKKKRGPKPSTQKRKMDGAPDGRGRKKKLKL
UniProt E9QAP7: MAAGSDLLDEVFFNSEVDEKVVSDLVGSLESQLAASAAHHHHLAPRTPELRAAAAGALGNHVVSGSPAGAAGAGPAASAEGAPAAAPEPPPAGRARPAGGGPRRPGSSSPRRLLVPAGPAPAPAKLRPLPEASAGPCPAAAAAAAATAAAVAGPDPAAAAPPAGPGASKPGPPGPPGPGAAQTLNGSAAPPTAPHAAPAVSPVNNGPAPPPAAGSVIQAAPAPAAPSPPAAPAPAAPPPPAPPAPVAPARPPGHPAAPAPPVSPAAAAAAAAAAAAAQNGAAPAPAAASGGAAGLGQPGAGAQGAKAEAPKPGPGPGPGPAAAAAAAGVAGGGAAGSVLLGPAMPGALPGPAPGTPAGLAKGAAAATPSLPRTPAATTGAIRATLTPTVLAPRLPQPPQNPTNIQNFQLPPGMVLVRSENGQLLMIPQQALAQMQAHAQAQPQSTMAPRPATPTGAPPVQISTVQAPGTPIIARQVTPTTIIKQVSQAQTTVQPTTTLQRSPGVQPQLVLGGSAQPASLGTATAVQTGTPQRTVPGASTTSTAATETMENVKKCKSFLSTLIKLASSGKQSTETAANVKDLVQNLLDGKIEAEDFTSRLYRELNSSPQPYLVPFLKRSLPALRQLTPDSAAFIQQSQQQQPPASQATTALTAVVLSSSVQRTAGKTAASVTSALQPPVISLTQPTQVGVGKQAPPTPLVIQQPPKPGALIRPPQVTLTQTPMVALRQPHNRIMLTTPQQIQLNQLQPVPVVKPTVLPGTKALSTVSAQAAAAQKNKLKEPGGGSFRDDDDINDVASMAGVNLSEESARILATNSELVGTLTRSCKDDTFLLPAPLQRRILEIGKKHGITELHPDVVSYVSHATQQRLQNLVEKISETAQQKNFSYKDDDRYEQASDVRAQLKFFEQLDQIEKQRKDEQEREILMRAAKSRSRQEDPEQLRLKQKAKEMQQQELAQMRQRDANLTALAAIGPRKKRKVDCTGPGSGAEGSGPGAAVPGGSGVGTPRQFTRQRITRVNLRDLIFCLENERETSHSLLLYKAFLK
UniProt Q8K0H5: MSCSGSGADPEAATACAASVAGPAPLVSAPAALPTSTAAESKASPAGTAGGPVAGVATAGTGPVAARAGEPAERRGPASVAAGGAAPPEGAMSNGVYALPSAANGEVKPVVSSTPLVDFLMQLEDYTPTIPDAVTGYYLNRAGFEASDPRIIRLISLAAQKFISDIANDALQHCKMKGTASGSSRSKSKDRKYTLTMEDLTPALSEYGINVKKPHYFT

BMS1 (from UniProt Q6PGF5 1-1284) was tested, and the binding was “binds”.
In the case of H1F0 (from UniProt P10922 1-194), the binding is reported as “binds”.
HIST1h1b (from UniProt P43276 1-223) was tested, and the binding was “binds”.
With HIST1h1e (from UniProt P43274 1-219) the binding was “binds”.
With KLF13 (from UniProt Q9JJZ6 1-289) the binding was “binds”.
For MDN1 (from UniProt A2ANY6 1-5589), the binding was “binds”.
For RBBP6 (from UniProt P97868 1-1790), the binding was “binds”.
For RCF2 (from UniProt Q9WUK4 1-349), the binding was “binds”.
In the case of RCF3 (from UniProt Q8R323 1-356), the binding is reported as “binds”.
For RCF4 (from UniProt Q99J62 1-364), the binding was “binds”.
RCF5 (from UniProt Q9D0F6 1-339) was tested, and the binding was “binds”.
With SMARCA5 (from UniProt Q91ZW3 1-1051) the binding was “binds”.
With SMC3 (from UniProt Q9CW03 1-1217) the binding was “binds”.
For SSRP1 (from UniProt Q08943 1-708), the binding was “binds”.
For TAF4 (from UniProt E9QAP7 1-1042), the binding was “binds”.
For TAF6 (from UniProt Q62311 1-678), the binding was “binds”.
TAF10 (from UniProt Q8K0H5 1-218) was tested, and the binding was “binds”.

Source: paper doi:10.1101/2020.01.03.892703
